PubChem BioAssay AID1053208 | Peter MacCallum Cancer Centre – 2014
Assay: 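Genes whose silencing cuts survival of bone tumour cells only with doxorubicin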 (primary screen). Cell system: mouse osteosarcoma cells, early-passage culture from an engineered mouse model of fibroblastic bone tumour. Reagent: siRNA pool against mouse genes, 40 nM. Time to read-out: about 120 h (48 h before drug, then 72 h with drug). Treatment: doxorubicin 100 nM for 72 h, roughly 30-40% inhibitory dose. Measured: 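Viability read as ATP luminescence after 72 h of 100 nM doxorubicin or none, duplicate wells averaged, scaled to non-targeting siRNA, then expressed as robust z-scores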. Scale: viability z-score with doxorubicin: higher = more viable cells under doxorubicin; viability z-score without drug: higher = more viable cells with knock-down alone. Rule for the call: 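Called active if knock-down leaves viability unchanged without drug (z within -2 to 2) but lowers it with doxorubicin (z at or under -2)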.
The whole screen tested about 17,000 reagents; below is an unselected part. In the full data, 788 (4.7%) are marked active. 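Calls rest on z-score classes alone; an extra cut-off of viability at most 70% of control was not applied to them.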 Entries without a mark were called inactive. The numbers tell different reagents against one gene apart. Further read-outs or replicates are left out here.

target | pool no. | combined z-score class | viability z-score with doxorubicin | viability z-score without drug
A930024E05Rik (RIKEN cDNA A930024E05 gene) | 1 | no change with or without drug | -0.9 | 1.18
Tada2a (transcriptional adaptor 2A) | 1 | no change with or without drug | 0.67 | 0.17
Adprh (ADP-ribosylarginine hydrolase) | 1 | no change with or without drug | 0.22 | -0.17
Tex101 (testis expressed gene 101) | 1 | no change with or without drug | -1.8 | 0.51
Vps35l (VPS35 endosomal protein sorting factor like) | 1 | no change with or without drug | -0.9 | -0.84
Muc6 (mucin 6, gastric) | 1 | no change with or without drug | -0.45 | -0.67
Apip (APAF1 interacting protein) | 1 | no change with or without drug | -1.8 | -1.52
Psmc4 (proteasome (prosome, macropain) 26S subunit, ATPase, 4) | 1 | low cell count with and without drug | -7.64 | -8.94
A730013G03Rik (RIKEN cDNA A730013G03 gene) | 1 | no change with or without drug | 0 | -1.01
Thap11 (THAP domain containing 11) | 1 | high cell count with doxorubicin only | 3.04 | 1.18
Tmem150cos (transmembrane protein 150C, opposite strand) | 1 | no change with or without drug | -0.22 | 1.18
Smc1b (structural maintenance of chromosomes 1B) | 1 | no change with or without drug | 0.67 | 0
Zfp39 (zinc finger protein 39) | 1 | no change with or without drug | -1.35 | -0.17
Ankrd6 (ankyrin repeat domain 6) | 1 | no change with or without drug | -0.45 | 1.01
Cripto (cripto, EGF-CFC family member) | 1 | no change with or without drug | -0.67 | -0.67
Llph (LLP homolog, long-term synaptic facilitation (Aplysia)) | 1 | high cell count without drug only | -1.12 | 2.87
Grik3 (glutamate receptor, ionotropic, kainate 3) | 1 | no change with or without drug | 1.35 | -1.18
Was (Wiskott-Aldrich syndrome) | 1 | no change with or without drug | -0.67 | 0.51
Zfp692 (zinc finger protein 692) | 1 | no change with or without drug | -0.22 | 0.34
Or13p8 (olfactory receptor family 13 subfamily P member 8) | 1 | no change with or without drug | -0.11 | -0.51
Dmtn (dematin actin binding protein) | 1 | no change with or without drug | 0 | -0.51
Ppp1r14b (protein phosphatase 1, regulatory inhibitor subunit 14B) | 1 | no change with or without drug | 0 | -0.17
Prss29 (serine protease 29) | 1 | no change with or without drug | -0.45 | 0.67
Prdm4 (PR domain containing 4) | 1 | high cell count with doxorubicin only | 2.02 | 1.69
Trappc2b (trafficking protein particle complex 2B) | 1 | no change with or without drug | 1.8 | 1.18
Glod5 (glyoxalase domain containing 5) | 1 | no change with or without drug | 0 | 0.84
Kif17 (kinesin family member 17) | 1 | no change with or without drug | -0.67 | -1.18
Acad9 (acyl-Coenzyme A dehydrogenase family, member 9) | 1 | no change with or without drug | 0.9 | 0.17
Hsp90aa1 (heat shock protein 90, alpha (cytosolic), class A member 1) | 1 | no change with or without drug | 0.79 | -0.51
Cnpy4 (canopy FGF signaling regulator 4) | 1 | no change with or without drug | -0.11 | 0.17
Or8c17 (olfactory receptor family 8 subfamily C member 17) | 1 | no change with or without drug | 0.45 | 1.35
Qdpr (quinoid dihydropteridine reductase) | 1 | no change with or without drug | 0.22 | 0.84
Gkn2 (gastrokine 2) | 1 | no change with or without drug | 0 | 1.52
Pla2g2e (phospholipase A2, group IIE) | 1 | no change with or without drug | 0.9 | 0.51

Records listed so far whose target name begins with A or a (6):
target | pool no. | combined z-score class | viability z-score with doxorubicin | viability z-score without drug
A930024E05Rik (RIKEN cDNA A930024E05 gene) | 1 | no change with or without drug | -0.9 | 1.18
Adprh (ADP-ribosylarginine hydrolase) | 1 | no change with or without drug | 0.22 | -0.17
Apip (APAF1 interacting protein) | 1 | no change with or without drug | -1.8 | -1.52
A730013G03Rik (RIKEN cDNA A730013G03 gene) | 1 | no change with or without drug | 0 | -1.01
Ankrd6 (ankyrin repeat domain 6) | 1 | no change with or without drug | -0.45 | 1.01
Acad9 (acyl-Coenzyme A dehydrogenase family, member 9) | 1 | no change with or without drug | 0.9 | 0.17

Continued.
target | pool no. | combined z-score class | viability z-score with doxorubicin | viability z-score without drug
Gzmd (granzyme D) | 1 | no change with or without drug | 0.67 | 0
Spg7 (SPG7, paraplegin matrix AAA peptidase subunit) | 1 | low cell count with doxorubicin only (active) | -2.7 | -0.17
Spg7 (SPG7, paraplegin matrix AAA peptidase subunit) | 2 | no change with or without drug | 1.01 | 1.18
St3gal6 (ST3 beta-galactoside alpha-2,3-sialyltransferase 6) | 1 | no change with or without drug | -0.9 | 0.17
Prdx3 (peroxiredoxin 3) | 1 | no change with or without drug | 1.46 | 1.69
Zhx2 (zinc fingers and homeoboxes 2) | 1 | high cell count with and without drug | 2.36 | 2.7
Fstl1 (follistatin-like 1) | 1 | high cell count with doxorubicin only | 2.36 | 0.17
Srpx2 (sushi-repeat-containing protein, X-linked 2) | 1 | no change with or without drug | -0.34 | -1.52
Prr14 (proline rich 14) | 1 | no change with or without drug | -0.34 | 0.84
Usp15 (ubiquitin specific peptidase 15) | 1 | no change with or without drug | 0 | -0.34
Aknaos (AT-hook transcription factor, opposite strand) | 1 | low cell count with doxorubicin only (active) | -2.47 | -1.52
Stk32c (serine/threonine kinase 32C) | 1 | no change with or without drug | -1.01 | -0.51
Cntrob (centrobin, centrosomal BRCA2 interacting protein) | 1 | no change with or without drug | -0.67 | 0.17
Ntsr2 (neurotensin receptor 2) | 1 | no change with or without drug | 0.67 | -1.85
Fancb (Fanconi anemia, complementation group B) | 1 | no change with or without drug | 0.67 | 0.51
Lrg1 (leucine-rich alpha-2-glycoprotein 1) | 1 | no change with or without drug | 0.22 | -1.18
Gpr156 (G protein-coupled receptor 156) | 1 | no change with or without drug | -1.69 | 1.85
Nr2e3 (nuclear receptor subfamily 2, group E, member 3) | 1 | no change with or without drug | 0.34 | 1.52
Gata6 (GATA binding protein 6) | 1 | no change with or without drug | -0.79 | 0.51
Scgb1a1 (secretoglobin, family 1A, member 1) | 1 | no change with or without drug | 0.9 | -0.51
9630013D21Rik (RIKEN cDNA 9630013D21 gene) | 1 | no change with or without drug | 0 | 0.51
Pdcd7 (programmed cell death 7) | 1 | no change with or without drug | 1.35 | 0.84
Syne3 (spectrin repeat containing, nuclear envelope family member 3) | 1 | no change with or without drug | 0.9 | 0.17
Serpinb6a (serine (or cysteine) peptidase inhibitor, clade B, member 6a) | 1 | no change with or without drug | -0.45 | 1.18
Slc26a1 | 1 | no change with or without drug | 0.22 | 1.52
Pcdhb16 (protocadherin beta 16) | 1 | low cell count with doxorubicin only (active) | -2.02 | -0.51
Atp1b1 (ATPase, Na+/K+ transporting, beta 1 polypeptide) | 1 | no change with or without drug | 0.56 | -0.17
Slc40a1 | 1 | no change with or without drug | 0.11 | 1.01
Tm7sf2 (transmembrane 7 superfamily member 2) | 1 | no change with or without drug | 0 | 0.51
